Source: the supplement of paper PMC10849652
The list shows a part of the results.

By UniProt entry, the sequences of proteins in these tests, tags left out. Where a name states a change or a piece, a line headed by the entry shows the natural chain unless it says otherwise.
UniProt Q4G0J3: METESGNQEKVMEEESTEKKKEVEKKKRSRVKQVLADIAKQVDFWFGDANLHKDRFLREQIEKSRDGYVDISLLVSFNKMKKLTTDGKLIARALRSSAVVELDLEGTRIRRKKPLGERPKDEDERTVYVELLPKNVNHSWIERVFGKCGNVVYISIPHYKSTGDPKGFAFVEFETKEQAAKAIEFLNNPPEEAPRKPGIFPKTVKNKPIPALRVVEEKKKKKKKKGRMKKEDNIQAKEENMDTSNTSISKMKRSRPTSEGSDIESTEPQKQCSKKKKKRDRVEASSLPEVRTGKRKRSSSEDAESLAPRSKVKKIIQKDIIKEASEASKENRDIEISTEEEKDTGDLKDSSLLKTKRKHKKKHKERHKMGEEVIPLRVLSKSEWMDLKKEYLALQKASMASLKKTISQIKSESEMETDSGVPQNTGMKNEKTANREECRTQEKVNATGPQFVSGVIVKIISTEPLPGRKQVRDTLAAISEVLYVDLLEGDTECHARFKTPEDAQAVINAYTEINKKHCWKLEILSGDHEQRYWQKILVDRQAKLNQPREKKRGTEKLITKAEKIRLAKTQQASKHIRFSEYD
UniProt O00139: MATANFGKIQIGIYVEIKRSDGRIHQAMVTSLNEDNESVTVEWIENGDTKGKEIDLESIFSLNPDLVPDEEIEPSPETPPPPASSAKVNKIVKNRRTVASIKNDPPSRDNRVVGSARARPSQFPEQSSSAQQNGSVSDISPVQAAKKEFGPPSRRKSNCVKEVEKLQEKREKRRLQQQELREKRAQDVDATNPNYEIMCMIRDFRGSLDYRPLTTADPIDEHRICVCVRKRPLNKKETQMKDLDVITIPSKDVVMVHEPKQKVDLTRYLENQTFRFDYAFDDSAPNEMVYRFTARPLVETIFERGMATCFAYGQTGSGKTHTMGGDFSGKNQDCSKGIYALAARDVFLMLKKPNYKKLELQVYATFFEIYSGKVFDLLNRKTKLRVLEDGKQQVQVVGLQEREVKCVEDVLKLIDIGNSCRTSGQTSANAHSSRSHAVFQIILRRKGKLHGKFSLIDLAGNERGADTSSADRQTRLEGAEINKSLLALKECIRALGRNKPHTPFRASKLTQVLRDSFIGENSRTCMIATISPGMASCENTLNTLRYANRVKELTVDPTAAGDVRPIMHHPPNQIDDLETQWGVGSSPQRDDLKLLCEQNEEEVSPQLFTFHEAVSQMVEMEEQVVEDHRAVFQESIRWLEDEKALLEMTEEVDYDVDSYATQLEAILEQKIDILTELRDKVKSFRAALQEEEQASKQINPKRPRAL
UniProt Q96AT1: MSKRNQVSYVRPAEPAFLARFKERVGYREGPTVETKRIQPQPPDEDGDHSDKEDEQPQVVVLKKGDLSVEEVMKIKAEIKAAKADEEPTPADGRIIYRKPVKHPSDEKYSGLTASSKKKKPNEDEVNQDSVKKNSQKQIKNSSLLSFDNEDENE
UniProt O60268: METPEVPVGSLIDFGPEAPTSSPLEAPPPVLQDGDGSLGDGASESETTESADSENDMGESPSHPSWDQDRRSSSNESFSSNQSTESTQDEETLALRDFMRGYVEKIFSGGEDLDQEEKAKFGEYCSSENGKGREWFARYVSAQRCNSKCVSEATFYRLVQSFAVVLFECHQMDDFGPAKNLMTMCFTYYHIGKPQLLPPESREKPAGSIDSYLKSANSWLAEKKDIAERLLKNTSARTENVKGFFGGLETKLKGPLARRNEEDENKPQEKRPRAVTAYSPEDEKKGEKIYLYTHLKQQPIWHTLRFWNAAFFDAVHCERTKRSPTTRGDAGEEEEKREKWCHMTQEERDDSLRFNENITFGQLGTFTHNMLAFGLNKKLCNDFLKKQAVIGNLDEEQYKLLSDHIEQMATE
UniProt Q9Y2M5: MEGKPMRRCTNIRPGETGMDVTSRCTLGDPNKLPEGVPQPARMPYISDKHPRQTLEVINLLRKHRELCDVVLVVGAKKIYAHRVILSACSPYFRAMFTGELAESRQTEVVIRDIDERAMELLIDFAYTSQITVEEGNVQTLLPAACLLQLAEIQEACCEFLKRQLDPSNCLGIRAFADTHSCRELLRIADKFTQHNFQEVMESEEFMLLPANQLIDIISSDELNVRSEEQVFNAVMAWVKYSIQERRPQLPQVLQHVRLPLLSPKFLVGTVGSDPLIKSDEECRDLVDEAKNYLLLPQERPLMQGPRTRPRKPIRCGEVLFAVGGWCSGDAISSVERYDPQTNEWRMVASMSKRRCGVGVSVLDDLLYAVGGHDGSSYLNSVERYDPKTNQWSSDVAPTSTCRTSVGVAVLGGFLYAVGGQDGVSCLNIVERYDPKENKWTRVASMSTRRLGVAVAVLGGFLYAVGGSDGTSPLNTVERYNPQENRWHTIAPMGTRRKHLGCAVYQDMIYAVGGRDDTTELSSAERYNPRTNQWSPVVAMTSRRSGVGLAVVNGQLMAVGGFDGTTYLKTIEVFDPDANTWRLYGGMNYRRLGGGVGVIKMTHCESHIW
UniProt P50053: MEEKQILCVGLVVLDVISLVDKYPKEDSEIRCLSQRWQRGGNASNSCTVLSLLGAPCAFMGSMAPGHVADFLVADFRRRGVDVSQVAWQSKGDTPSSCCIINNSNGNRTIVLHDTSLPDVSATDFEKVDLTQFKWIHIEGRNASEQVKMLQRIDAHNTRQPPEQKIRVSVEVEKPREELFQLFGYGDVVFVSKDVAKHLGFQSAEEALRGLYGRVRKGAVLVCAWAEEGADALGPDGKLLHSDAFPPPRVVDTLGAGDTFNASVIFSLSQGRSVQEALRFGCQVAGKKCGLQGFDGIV
UniProt Q53HC5: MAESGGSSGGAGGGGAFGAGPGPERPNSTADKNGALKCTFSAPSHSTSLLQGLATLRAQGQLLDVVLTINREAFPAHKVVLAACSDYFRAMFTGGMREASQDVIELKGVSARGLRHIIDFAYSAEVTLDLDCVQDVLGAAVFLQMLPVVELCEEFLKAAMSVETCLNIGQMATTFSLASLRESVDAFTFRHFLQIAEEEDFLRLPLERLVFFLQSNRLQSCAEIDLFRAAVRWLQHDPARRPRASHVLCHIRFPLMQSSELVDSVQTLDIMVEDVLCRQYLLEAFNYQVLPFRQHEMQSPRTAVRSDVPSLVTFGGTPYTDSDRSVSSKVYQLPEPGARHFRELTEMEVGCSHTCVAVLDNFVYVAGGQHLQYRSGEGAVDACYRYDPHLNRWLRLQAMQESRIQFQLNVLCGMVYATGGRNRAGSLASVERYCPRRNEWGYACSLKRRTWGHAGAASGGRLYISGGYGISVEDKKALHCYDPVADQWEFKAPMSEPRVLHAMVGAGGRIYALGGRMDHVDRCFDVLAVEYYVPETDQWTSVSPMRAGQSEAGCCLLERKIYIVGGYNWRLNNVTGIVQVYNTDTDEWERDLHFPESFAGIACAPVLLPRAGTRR
UniProt Q9H3R0: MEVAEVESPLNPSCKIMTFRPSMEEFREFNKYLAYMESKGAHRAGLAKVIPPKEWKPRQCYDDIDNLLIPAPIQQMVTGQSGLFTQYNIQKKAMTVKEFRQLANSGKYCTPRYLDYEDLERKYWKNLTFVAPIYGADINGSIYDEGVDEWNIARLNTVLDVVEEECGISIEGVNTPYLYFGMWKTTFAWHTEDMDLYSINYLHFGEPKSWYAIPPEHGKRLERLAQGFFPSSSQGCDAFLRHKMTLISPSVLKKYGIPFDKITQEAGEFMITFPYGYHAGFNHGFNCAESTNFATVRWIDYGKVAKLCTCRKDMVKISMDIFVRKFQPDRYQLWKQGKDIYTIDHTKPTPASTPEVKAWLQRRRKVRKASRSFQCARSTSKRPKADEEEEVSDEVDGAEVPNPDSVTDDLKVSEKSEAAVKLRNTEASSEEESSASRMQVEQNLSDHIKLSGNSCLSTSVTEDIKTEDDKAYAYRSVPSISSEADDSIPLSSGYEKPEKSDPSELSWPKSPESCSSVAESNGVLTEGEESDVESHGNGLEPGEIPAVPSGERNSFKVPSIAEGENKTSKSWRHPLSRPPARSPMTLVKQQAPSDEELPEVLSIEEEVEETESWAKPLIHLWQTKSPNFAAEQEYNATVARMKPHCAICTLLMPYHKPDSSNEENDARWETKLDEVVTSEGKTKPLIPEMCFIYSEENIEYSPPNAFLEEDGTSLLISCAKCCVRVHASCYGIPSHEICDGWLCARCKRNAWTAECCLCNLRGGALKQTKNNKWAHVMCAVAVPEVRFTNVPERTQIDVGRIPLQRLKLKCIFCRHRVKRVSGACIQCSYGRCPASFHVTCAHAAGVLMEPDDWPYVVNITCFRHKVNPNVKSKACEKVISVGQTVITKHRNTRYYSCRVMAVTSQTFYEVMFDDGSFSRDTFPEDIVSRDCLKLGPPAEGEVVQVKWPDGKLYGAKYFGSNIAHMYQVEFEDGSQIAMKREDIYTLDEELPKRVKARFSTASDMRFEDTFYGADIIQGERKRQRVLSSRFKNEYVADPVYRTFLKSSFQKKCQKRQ
UniProt P13473: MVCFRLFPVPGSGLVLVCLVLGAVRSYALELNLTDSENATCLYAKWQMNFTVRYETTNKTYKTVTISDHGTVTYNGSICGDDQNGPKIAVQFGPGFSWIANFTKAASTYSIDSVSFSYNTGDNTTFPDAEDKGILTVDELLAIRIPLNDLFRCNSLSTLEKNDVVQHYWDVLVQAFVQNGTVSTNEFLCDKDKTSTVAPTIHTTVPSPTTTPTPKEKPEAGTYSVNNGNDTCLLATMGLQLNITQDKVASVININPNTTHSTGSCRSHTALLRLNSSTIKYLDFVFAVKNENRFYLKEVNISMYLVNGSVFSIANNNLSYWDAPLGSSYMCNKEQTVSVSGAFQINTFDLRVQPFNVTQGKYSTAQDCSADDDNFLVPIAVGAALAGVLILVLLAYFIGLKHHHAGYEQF
UniProt Q6PID8: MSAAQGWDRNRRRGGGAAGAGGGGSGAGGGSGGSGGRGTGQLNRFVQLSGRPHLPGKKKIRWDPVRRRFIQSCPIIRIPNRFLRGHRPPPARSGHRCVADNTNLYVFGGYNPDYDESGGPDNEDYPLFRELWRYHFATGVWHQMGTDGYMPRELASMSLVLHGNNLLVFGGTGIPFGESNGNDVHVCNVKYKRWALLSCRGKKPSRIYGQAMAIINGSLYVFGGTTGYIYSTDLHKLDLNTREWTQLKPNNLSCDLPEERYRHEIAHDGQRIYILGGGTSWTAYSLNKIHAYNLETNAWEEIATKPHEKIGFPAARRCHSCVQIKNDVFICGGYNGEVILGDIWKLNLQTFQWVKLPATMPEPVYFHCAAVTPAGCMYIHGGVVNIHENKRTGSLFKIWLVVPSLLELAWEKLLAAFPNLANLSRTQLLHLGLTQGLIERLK
UniProt Q96L93: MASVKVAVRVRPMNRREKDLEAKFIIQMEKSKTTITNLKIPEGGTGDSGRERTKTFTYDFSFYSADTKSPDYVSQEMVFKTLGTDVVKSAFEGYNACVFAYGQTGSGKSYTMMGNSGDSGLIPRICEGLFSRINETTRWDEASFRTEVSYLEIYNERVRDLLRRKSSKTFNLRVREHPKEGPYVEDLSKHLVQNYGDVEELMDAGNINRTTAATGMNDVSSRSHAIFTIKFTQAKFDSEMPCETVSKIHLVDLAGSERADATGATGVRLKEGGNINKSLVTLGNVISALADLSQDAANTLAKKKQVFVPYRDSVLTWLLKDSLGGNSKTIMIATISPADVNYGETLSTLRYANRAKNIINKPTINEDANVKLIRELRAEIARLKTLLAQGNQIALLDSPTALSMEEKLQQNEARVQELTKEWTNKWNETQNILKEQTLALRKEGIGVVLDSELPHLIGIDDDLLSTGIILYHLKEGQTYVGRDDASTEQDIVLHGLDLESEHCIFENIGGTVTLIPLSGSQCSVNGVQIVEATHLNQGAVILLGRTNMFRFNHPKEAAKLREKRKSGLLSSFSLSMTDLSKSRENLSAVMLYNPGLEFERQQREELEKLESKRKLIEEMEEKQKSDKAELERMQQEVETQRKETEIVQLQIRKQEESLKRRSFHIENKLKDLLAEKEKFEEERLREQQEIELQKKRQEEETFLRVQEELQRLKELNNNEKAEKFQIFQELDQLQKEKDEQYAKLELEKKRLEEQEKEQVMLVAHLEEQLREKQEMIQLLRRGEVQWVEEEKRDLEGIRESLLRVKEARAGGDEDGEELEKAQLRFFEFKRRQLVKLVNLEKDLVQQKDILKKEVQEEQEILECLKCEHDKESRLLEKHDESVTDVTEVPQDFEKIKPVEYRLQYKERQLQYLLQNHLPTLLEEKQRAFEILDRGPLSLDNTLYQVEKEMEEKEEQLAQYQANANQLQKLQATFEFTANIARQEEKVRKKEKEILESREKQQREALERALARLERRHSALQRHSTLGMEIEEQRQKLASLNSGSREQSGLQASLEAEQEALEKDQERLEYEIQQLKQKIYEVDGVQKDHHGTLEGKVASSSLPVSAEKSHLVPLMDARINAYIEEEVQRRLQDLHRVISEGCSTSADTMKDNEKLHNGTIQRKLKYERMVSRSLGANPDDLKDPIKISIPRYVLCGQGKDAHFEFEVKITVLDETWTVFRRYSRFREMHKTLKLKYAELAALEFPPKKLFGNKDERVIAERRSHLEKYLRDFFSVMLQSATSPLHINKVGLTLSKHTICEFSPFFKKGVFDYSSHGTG

What was measured:
Experiment in all cases: log2 fold change, soluble protein after heating vs DMSO (PISA); higher = thermal stabilisation; K562 lysate, 10 uM; active = over 0.2 and 3.5 SD of the protein, either way, in both replicates (recomputed)
[1] = compound: CN1CC[C@H](c2c(O)cc(O)c3c(=O)cc(-c4ccccc4Cl)oc23)[C@H](O)C1 [alvocidib]
In short: (§1)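 Following dounce homogenisation of K562 pellets in PBS pH 7.4 with 1 mM MgCl2, crude extract at 1 mg/mL protein was incubated for 30 min with 10 μM compound. Aliquots were then heated for 3 min over 48°C-58°C and pooled, NP-40 was added to 0.5% at 4°C, and soluble protein was recovered as the supernatant at 21,000xg for 90 min. Channel-sum-equalised TMTpro 16plex LC-MS/MS quantified this protein. Each value, from duplicates, is a log-two fold change in thermal stability relative to solvent controls.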

[2] = compound: CN1CCc2c(c3ccccc3n2Cc2ccc(C(=O)NO)cc2)C1 [Tubastatin A]
In short: as §1

[3] = compound: CNC(=O)C1=CC=CC=C1NC2=NC(=NC=C2Cl)NC3=C(C=C(C=C3)N4CCOCC4)OC
In short: as §1

[4] = compound: CNC(=O)c1ccc(Nc2ncc(C(F)(F)F)c(NCc3nccnc3N(C)S(C)(=O)=O)n2)cc1 [defactinib]
In short: as §1

[5] = compound: CNc1nc(-c2ccc3c(N)n[nH]c3c2)cc(N2C[C@@H](C(=O)NC3CCCCC3)CC[C@H]2C)n1
In short: as §1

[6] = compound: COC(=O)N[C@@H](C)CNc1nccc(-c2cn(C(C)C)nc2-c2cc(Cl)cc(NS(C)(=O)=O)c2F)n1 [encorafenib]
In short: as §1

[7] = compound: COC(=O)[C@H](CCSC)NC(=O)C1=C(C=C(C=C1)NC[C@H](CS)N)C2=CC=CC=C2
In short: as §1

[8] = compound: COc1cc(Nc2ncc3c(n2)-c2ccc(Cl)cc2C(c2c(F)cccc2OC)=NC3)ccc1C(=O)O [alisertib]
In short: as §1

[9] = compound: COc1cc2nc(-c3cc(F)ccc3O)nc(N[C@@H]3CNC[C@H]3C(C)(C)O)c2cc1OC
In short: as §1

[10] = compound: COc1cc2ncnc(Nc3ccc(F)c(Cl)c3)c2cc1OCCCN1CCOCC1 [gefitinib]
In short: as §1

Measured: log2 fold change

KEAP1 (UniProt Q14145)
inactive: [1] -0.024 | [2] -0.019 | [3] -0.008 | [4] 0.014 | [5] 0.017 | [6] 0.043 | [7] -0.094 | [8] 0.012 | [9] 0.013 | [10] 0.018

LANCL2 (UniProt Q9NS86)
inactive: [1] -0.004 | [2] 0.009 | [3] 0.032 | [4] 0.014 | [5] 0.02 | [6] 0.053 | [7] -0.015 | [8] -0.011 | [9] 0.029 | [10] -0.04

KIF4A (UniProt O95239)
inactive: [1] 0.006 | [2] -0.145 | [3] 0.022 | [4] 0.006 | [5] 0.005 | [6] -0.014 | [7] 0.154 | [8] -0.041 | [9] -0.035 | [10] -0.018

KPNA1 (UniProt P52294)
inactive: [1] -0.018 | [2] -0.033 | [3] 0.019 | [4] -0.011 | [5] -0.026 | [6] 0.011 | [7] 0.092 | [8] -0.025 | [9] -0.006 | [10] 0.011

LARP7 isoform 3 (UniProt Q4G0J3)
inactive: [1] -0.004 | [2] 0.034 | [3] 0.004 | [4] -0.023 | [5] -0.025 | [6] 0.001 | [7] 0.001 | [8] -0.009 | [9] -0.01 | [10] -0.013

KIF2A isoform 4 (UniProt O00139)
inactive: [1] 0 | [2] -0.148 | [3] 0.005 | [4] 0.01 | [5] -0.024 | [6] 0.012 | [7] 0.093 | [8] 0.004 | [9] -0.014 | [10] 0.011

KPTN (UniProt Q9Y664)
inactive: [1] -0.038 | [2] -0.042 | [3] 0.032 | [4] 0.054 | [5] 0.026 | [6] -0.048 | [7] 0.076 | [8] -0.054 | [9] -0.013 | [10] 0.174

KIAA1143 (UniProt Q96AT1)
inactive: [1] -0.009 | [2] 0.076 | [3] 0.046 | [4] 0.073 | [5] 0.05 | [6] -0.022 | [7] -0.039 | [8] 0.01 | [9] 0.017 | [10] 0.013

KIAA0513 (UniProt O60268)
inactive: [1] -0.048 | [2] 0.024 | [3] 0.001 | [4] -0.011 | [5] 0.037 | [6] 0.076 | [7] 0.009 | [8] -0.03 | [9] 0.059 | [10] 0.046

KSR1 (UniProt Q8IVT5)
inactive: [1] 0.214 | [2] -0.086 | [3] -0.042 | [4] -0.045 | [5] -0.038 | [6] 0.075 | [7] 0.257 | [8] 0.028 | [9] 0.115 | [10] -0.016

KLHL42 (UniProt Q9P2K6)
inactive: [1] -0.034 | [2] 0.023 | [3] 0.015 | [5] -0.094 | [8] 0.027 | [9] 0.009 | [10] -0.031

LAMA5 (UniProt O15230)
inactive: [1] 0.065 | [2] -0.03 | [3] 0.063 | [5] 0.01 | [6] 0.07 | [7] 0.077

KDM4B (UniProt O94953)
inactive: [1] -0.077 | [2] -0.007 | [3] -0.064 | [4] 0 | [5] -0.074 | [6] 0.056 | [7] 0.092 | [8] 0.03 | [10] 0.167

KIAA0930 isoform 2 (UniProt Q6ICG6)
inactive: [1] -0.067 | [2] 0.077 | [4] 0.03 | [5] -0.118 | [6] -0.089 | [7] -0.032 | [8] 0.073 | [9] 0.013 | [10] -0.063

KLHL11 (UniProt Q9NVR0)
inactive: [1] -0.028 | [2] -0.122 | [3] -0.011 | [4] 0.001 | [5] -0.184 | [6] 0.058 | [7] 0.076 | [8] -0.008 | [10] 0.036

KLHL20 (UniProt Q9Y2M5)
inactive: [1] -0.006 | [2] 0.009 | [3] -0.057 | [5] -0.034 | [6] 0.083 | [7] -0.041 | [9] -0.007

KIF21B (UniProt O75037)
inactive: [1] -0.065 | [2] 0.115 | [4] -0.119 | [5] 0.205 | [6] -0.047 | [7] 0.084 | [8] -0.224 | [9] 0.155 | [10] 0.201

KHK isoform 2 (UniProt P50053)
inactive: [1] 0.058 | [2] -0.001 | [3] -0.057 | [4] -0.038 | [5] -0.068 | [6] 0.03 | [7] -0.02 | [8] 0.008 | [9] 0.083 | [10] -0.038

KLHL7 isoform 3 (UniProt Q8IXQ5)
inactive: [1] -0.047 | [2] 0.075 | [4] 0.047 | [6] 0.07 | [7] 0.115 | [8] 0.058 | [9] -0.042 | [10] -0.069

KLHL26 (UniProt Q53HC5)
inactive: [1] 0.083 | [3] -0.079 | [5] -0.059 | [8] 0.057 | [9] -0.063 | [10] 0.018

KDM4C (UniProt Q9H3R0)
inactive: [1] -0.025 | [2] -0.212 | [5] -0.187 | [8] -0.066 | [10] 0.079

KIF26A (UniProt Q9ULI4)
active: [2] 0.566
inactive: [1] 0.022 | [3] -0.149 | [4] -0.105 | [5] -0.021 | [6] -0.052 | [7] 0.035 | [8] 0.004 | [10] 0.056

KDM5A (UniProt P29375)
inactive: [1] -0.03 | [2] -0.173 | [5] 0.152

KMT2E (UniProt Q8IZD2)
inactive: [1] 0.074 | [2] -0.031 | [3] -0.008 | [4] -0.15 | [5] -0.018 | [6] -0.055 | [7] 0.027 | [8] -0.069 | [10] 0.045

KIF20B isoform 2 (UniProt Q96Q89)
inactive: [1] -0.1 | [2] -0.025 | [3] -0.064 | [4] -0.013 | [5] 0.153 | [6] -0.098 | [7] 0.063 | [8] 0.03 | [10] -0.209

KDM4A (UniProt O75164)
inactive: [1] -0.022 | [2] -0.093 | [3] 0.064 | [4] -0.027 | [5] -0.029 | [6] 0.021 | [7] 0.053 | [8] 0.026 | [10] 0.012

LAMP2 isoform 2 (UniProt P13473)
inactive: [1] 0.133 | [2] 0.018 | [3] -0.021 | [8] 0.02 | [10] -0.003

KLHDC10 (UniProt Q6PID8)
inactive: [1] -0.061 | [2] 0.001 | [3] -0.073 | [4] -0.221 | [5] -0.222 | [6] 0.046 | [7] -0.063 | [8] 0.008 | [10] -0.057

L3MBTL4 (UniProt Q8NA19)
inactive: [1] -0.02 | [2] -0.011 | [4] 0.02 | [6] -0.058 | [7] 0.156 | [8] -0.032 | [9] 0.019 | [10] -0.12

KIFAP3 (UniProt Q92845)
inactive: [1] 0.097 | [2] -0.024 | [5] 0.048 | [6] 0.043 | [7] -0.261 | [8] -0.032 | [10] -0.196

KIF16B isoform 2 (UniProt Q96L93)
inactive: [1] -0.027 | [2] -0.191 | [3] 0.015 | [4] -0.054 | [5] 0.123 | [6] 0.059 | [7] 0.141 | [8] -0.062 | [10] -0.17

KRBA1 (UniProt A5PL33)
inactive: [1] -0.074 | [2] -0.263 | [3] -0.104 | [4] 0.055 | [5] 0.005 | [6] 0.163 | [7] 0.035 | [9] 0.062

7 successive entries already listed:
KLHL7 isoform 3 (UniProt Q8IXQ5)
inactive: [1] -0.047 | [2] 0.075 | [4] 0.047 | [6] 0.07 | [7] 0.115 | [8] 0.058 | [9] -0.042 | [10] -0.069

KLHL26 (UniProt Q53HC5)
inactive: [1] 0.083 | [3] -0.079 | [5] -0.059 | [8] 0.057 | [9] -0.063 | [10] 0.018

KDM4C (UniProt Q9H3R0)
inactive: [1] -0.025 | [2] -0.212 | [5] -0.187 | [8] -0.066 | [10] 0.079

KIF26A (UniProt Q9ULI4)
active: [2] 0.566
inactive: [1] 0.022 | [3] -0.149 | [4] -0.105 | [5] -0.021 | [6] -0.052 | [7] 0.035 | [8] 0.004 | [10] 0.056

KDM5A (UniProt P29375)
inactive: [1] -0.03 | [2] -0.173 | [5] 0.152

KMT2E (UniProt Q8IZD2)
inactive: [1] 0.074 | [2] -0.031 | [3] -0.008 | [4] -0.15 | [5] -0.018 | [6] -0.055 | [7] 0.027 | [8] -0.069 | [10] 0.045

KIF20B isoform 2 (UniProt Q96Q89)
inactive: [1] -0.1 | [2] -0.025 | [3] -0.064 | [4] -0.013 | [5] 0.153 | [6] -0.098 | [7] 0.063 | [8] 0.03 | [10] -0.209
